Experimental data taken from paper PMC4549284.
No constants are given. Whether binding was seen depends on the method and setting. In cells and extracts the contact can be indirect. Some entries that bind do so weakly or less than the wild type.

Sequences of proteins named here, by UniProt entry; tags and fusion partners are left off.
UniProt Q01959: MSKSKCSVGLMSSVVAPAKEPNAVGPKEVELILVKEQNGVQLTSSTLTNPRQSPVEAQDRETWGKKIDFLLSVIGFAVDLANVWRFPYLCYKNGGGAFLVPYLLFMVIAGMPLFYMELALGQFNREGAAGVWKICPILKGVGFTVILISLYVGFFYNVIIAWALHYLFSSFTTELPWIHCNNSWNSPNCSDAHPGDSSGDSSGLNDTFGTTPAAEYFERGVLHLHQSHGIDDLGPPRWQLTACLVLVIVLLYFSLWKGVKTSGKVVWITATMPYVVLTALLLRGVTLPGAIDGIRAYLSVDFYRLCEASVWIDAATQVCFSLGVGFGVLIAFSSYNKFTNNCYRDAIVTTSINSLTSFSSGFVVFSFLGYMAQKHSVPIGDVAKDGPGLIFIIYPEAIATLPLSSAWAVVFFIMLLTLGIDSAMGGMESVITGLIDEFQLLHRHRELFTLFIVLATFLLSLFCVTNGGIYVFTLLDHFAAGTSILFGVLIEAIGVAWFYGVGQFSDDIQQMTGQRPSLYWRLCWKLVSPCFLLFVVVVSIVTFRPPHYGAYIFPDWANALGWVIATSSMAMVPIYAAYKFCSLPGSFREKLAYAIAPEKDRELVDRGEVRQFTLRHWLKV
UniProt P23977: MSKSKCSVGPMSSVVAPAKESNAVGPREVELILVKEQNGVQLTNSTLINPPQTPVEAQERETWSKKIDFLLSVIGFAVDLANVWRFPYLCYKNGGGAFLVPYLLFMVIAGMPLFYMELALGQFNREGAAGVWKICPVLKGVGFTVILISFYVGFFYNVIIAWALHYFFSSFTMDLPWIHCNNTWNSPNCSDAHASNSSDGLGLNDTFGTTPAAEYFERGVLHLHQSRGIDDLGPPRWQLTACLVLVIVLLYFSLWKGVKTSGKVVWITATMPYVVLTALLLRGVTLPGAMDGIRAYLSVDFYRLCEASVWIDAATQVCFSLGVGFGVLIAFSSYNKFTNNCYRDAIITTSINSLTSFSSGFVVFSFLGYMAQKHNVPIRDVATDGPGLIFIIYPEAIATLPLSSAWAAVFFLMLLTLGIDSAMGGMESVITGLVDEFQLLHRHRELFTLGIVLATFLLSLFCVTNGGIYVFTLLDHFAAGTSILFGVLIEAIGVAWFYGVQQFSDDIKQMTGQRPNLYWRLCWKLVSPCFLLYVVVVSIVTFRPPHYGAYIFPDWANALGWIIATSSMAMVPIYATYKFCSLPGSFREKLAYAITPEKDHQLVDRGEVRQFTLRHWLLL

Assays:
[1] = target: dopamine transporter (DAT) (human) (UniProt Q01959); experiment: co-IP; reverse: lysate (500 μg) of HEK-293T cells co-expressing DAT and DJ-1; 2 μg DAT antibodies, rat IgG as control; blot for DJ-1
[2] = target: DJ-1 (wild type) (human) (UniProt Q99497); experiment: co-IP; lysate (500 μg) of HEK-293T cells co-transfected with DAT and DJ-1; 2 μg anti-DJ-1 antibody on protein A/G agarose, overnight 4°C, modified RIPA buffer; blot for DAT
[3] = target: GST-DJ-1,3 (T108-D189) (human) (UniProt Q99497); experiment: pull-down; 50 μg GST fusion protein incubated with 500–750 μg extract of HEK-293T cells transfected with DAT, overnight 4°C; glutathione-agarose beads; washes PBS with 0.05–0.1% Triton X-100; blot for DAT; only the target purified
[4] = target: GST-DJ-1,3A [S161-K175] (human) (UniProt Q99497); experiment: as above
[5] = target: GST-DJ-1,3B [E176-D189] (human) (UniProt Q99497); experiment: as above
[6] = target: DJ-1 (wild type) (human) (UniProt Q99497); experiment: co-IP; competition: lysate (500 μg) of HEK-293T cells co-transfected with DAT, DJ-1 and either pcDNA3 or the DJ-1,3A mini-gene; co-immunoprecipitation of DAT with DJ-1, quantified (n = 7)
[7] = target: T1, DJ-1, rat striatum (rat (endogenous in striatum)) (UniProt O88767); experiment: co-IP; solubilized rat striatal tissue (750 μg), modified RIPA buffer; immunoprecipitated with DJ-1 antibody; blot for DAT
T1 sequence: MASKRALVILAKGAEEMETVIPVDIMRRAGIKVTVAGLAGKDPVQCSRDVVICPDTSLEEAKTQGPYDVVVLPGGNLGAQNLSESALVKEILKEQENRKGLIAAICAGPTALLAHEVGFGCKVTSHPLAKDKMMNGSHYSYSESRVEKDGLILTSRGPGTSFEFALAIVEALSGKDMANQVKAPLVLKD

## DJ-1 (wild type) (from UniProt Q99497 1-189)
[1]
  binding: binds

## dopamine transporter (DAT) (from UniProt Q01959 1-620)
[2]
  binding: binds
[3]
  binding: binds
[4]
  binding: binds
[5]
  binding: no binding (tested: 50 μg of GST fusion protein)
[6]
  binding: binds

## dopamine transporter (DAT), rat striatum (from UniProt P23977 1-619)
[7]
  binding: binds
